{"sequences": {"note": "By UniProt entry, the sequences of proteins in these tests, tags left out.", "UniProt Q92830, whole entry, looked up": "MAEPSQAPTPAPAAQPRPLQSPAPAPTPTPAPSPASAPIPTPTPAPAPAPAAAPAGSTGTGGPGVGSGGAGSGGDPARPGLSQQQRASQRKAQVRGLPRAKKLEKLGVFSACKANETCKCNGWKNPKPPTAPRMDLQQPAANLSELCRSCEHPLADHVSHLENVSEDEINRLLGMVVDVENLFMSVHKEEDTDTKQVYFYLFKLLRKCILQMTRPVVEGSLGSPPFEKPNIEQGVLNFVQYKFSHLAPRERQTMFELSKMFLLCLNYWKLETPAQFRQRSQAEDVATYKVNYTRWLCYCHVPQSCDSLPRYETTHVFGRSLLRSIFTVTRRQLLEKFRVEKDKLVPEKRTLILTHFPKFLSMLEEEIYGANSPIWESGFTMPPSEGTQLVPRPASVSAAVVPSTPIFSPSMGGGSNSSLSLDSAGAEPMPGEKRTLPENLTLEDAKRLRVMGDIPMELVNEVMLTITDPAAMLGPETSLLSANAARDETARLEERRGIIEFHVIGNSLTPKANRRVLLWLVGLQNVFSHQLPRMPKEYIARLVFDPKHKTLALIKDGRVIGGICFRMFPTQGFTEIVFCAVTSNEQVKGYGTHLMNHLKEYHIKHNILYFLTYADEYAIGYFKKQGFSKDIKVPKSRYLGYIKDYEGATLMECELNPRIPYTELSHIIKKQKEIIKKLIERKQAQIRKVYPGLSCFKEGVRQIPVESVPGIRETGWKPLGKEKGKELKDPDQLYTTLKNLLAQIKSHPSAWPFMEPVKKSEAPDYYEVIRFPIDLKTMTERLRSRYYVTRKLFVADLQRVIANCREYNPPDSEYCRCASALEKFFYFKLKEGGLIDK"}, "source": "PubChem BioAssay AID504327", "about": "(National Center for Advancing Translational Sciences (NCATS), 2011)", "note": "Values joined by “and” are separate entries in the source; they are usually repeats but may differ in a detail not shown here. Equal entries are not always repeated. In all, about 390,000 compounds went through this assay and about 820 (0.21%) were called active. The shares of active, inactive and inconclusive entries below differ from those in the screen. Calls follow the shape of the dose curve; as a rule, active = well fitted inhibition curve with a large enough effect; inconclusive = small, poorly fitted or top-dose-only effect, or another doubt; inactive = no such curve, though single readings can be large or run the other way. Where the call is inconclusive, the potency comes from a doubtful curve fit. Some compounds were tested as several samples or in several runs, with calls that do not always agree. % is scaled to controls: 0 for no effect and ±100 for the full control effect; potency is read from the fitted curve at half-maximal effect.", "data": [{"biological_target": "Histone acetyltransferase KAT2A (Homo sapiens) (UniProt Q92830)", "experiment": "qHTS Assay for Inhibitors of GCN5L2", "settings": "GCN5L2 HAT assay, ThioGlo1 CoA-SH fluorescence; activity change, negative = inhibition: at 58.9 µM (top of the series) unless noted", "how_it_was_run": "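Enzyme at 20nM final was mixed with library compounds for 15 min at room temperature. Peptide H3(1-25) at 75uM, acetyl-CoA at 70uM and ThioGlo1 at 50uM were then added. Plates were read immediately and after 20 min (Ex340nm/Em540nm).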", "values": [{"smiles": "Cc1cc(-c2nnc(CCC(=O)N(C)Cc3ccsc3)o2)no1", "Potency": "inconclusive: 0.141 µM [inhibitor, partial curve, poor fit]"}, {"smiles": "CC(C)OCCCn1c(=NC(=O)c2ccncc2)c(C#N)cc2c(=O)n3ccccc3nc21", "Potency": "inconclusive: 35.5 µM [inhibitor, single point]"}, {"smiles": "Cc1nc(-c2ccc(F)cc2)c(CC(=O)N2CCN(S(=O)(=O)c3ccc(F)cc3)CC2)s1", "Potency": "inconclusive: 0.1 µM [inhibitor, full curve, poor fit]"}, {"smiles": "COC(=O)c1cc(NC(=O)c2ccccc2)c(=O)oc1C/C=N\\OCc1ccc(Cl)cc1Cl", "activity change, negative = inhibition": "inconclusive: -86% [inhibitor] [at 0.501 µM]"}, {"smiles": "Cc1ncc(CO)c2c1Oc1nc(-c3ccccc3Cl)nc(SCc3ccccc3F)c1C2", "activity change, negative = inhibition": "inactive: -7.39%"}, {"smiles": "CC(=O)c1cccc(N/C=C\\C(=O)c2ccc(C)cc2)c1", "activity change, negative = inhibition": "inactive: -3.83%"}, {"smiles": "COc1ccc(N(CC(C)C)S(=O)(=O)c2nnc(NC(=O)c3ccco3)s2)cc1", "Potency": "active: 1 µM"}, {"smiles": "CCCCOC(=O)C1=C(C)Nc2nnnn2C1c1ccc(OC)c(OC)c1OC", "note": "(configuration not stated)", "Potency": "inconclusive: 10 µM [inhibitor, partial curve, poor fit]"}, {"smiles": "COCCOc1cc(NCc2ccccc2)c2ncn(C(C)C)c2c1", "Potency": "inconclusive: 0.631 µM [inhibitor, single point]"}, {"smiles": "CCC(=O)N1CCN(c2ccccc2NC(=O)COc2ccccc2Cl)CC1", "activity change, negative = inhibition": "inactive: -1.88%"}, {"smiles": "CCN(CC)C(=O)C1CCCN(c2ccc([N+](=O)[O-])cc2/C=N/NC(=O)c2ccc([N+](=O)[O-])cc2)C1", "note": "(configuration not stated)", "Potency": "inconclusive: 28.2 µM [inhibitor, single point]"}, {"smiles": "COc1cccc(Nc2ncc3nc(C)c(=O)n(Cc4cccs4)c3n2)c1", "Potency": "inconclusive: 14.1 µM [inhibitor, partial curve]"}, {"smiles": "CCc1ccc(NC(=O)Cn2nc(C(F)(F)F)c3c2CCCC3)cc1", "activity change, negative = inhibition": "inactive: -1.63%"}, {"smiles": "CCN(CC)c1ccc(S(=O)(=O)N2CCOCC2)cc1NC(=O)CNCc1ccccc1", "Potency": "inconclusive: 0.447 µM [inhibitor, full curve]"}, {"smiles": "COc1ccc(-c2cc(C(=O)NCC3CCCO3)c3ccccc3n2)c(OC)c1", "note": "(configuration not stated)", "activity change, negative = inhibition": "inactive: -5.7%"}, {"smiles": "CC(C)C[C@@H](NC(=O)[C@H](Cc1ccccc1)NC(=O)c1cnccn1)B(O)O", "activity change, negative = inhibition": "inactive: 1.63%"}, {"smiles": "CC(NC(N)=O)C(=O)Nc1ccc(Cl)c(S(=O)(=O)Nc2ccc(Cl)cc2)c1", "note": "(configuration not stated)", "activity change, negative = inhibition": "inactive: -12.6%"}, {"smiles": "COc1cc(/C=C2\\SC(=Nc3ccccc3)N(Cc3ccco3)C2=O)ccc1OC(C)C(=O)O", "note": "(configuration not stated)", "Potency": "inconclusive: 39.8 µM [inhibitor, single point]"}, {"smiles": "Nc1nnc(CSCc2ccc(Cl)cc2Cl)s1", "activity change, negative = inhibition": "inactive: -19.3%"}, {"smiles": "O=c1c(-c2ccc(F)cc2)nc2cnc(N3CCNCC3)nc2n1C1CC1", "Potency": "inconclusive: 28.2 µM [inhibitor, partial curve]"}, {"smiles": "O=C(O)CCC(=O)Nc1ccc(C(=O)OC2CCCCC2)cc1", "Potency": "inconclusive: 3.98 µM [inhibitor, single point]"}, {"smiles": "CCCc1nc2oc(C(=O)OCC)c(N)c2c2c1COC(C)(C)C2", "Potency": "inconclusive: 11.2 µM [inhibitor, partial curve]"}, {"smiles": "CCSC[C@H](NC(=O)[C@H](C)NC(=O)[C@@H](N)Cc1ccc(O)cc1)C(=O)N[C@@H](CC(=O)O)C(=O)N[C@H](C(=O)N[C@@H](C)C(=O)N[C@H](C(=O)N[C@@H](CSCC)C(=O)N[C@H](C(=O)N[C@H](C(=O)N[C@@H](Cc1cnc[nH]1)C(=O)N[C@@H](CCCNC(=N)N)C(=O)N[C@@H](CC(C)C)C(=O)N[C@@H](C)C(=O)NCC(=O)N[C@@H](CC(C)C)C(=O)N[C@@H](CC(C)C)C(=O)N[C@@H](CO)C(=O)N[C@@H](CCCNC(=N)N)C(=O)N[C@@H](CO)C(=O)NCC(=O)NCC(=O)N[C@H](C(=O)N[C@H](C(=O)N[C@@H](CCCCN)C(=O)N[C@@H](CC(N)=O)C(=O)N[C@@H](CC(N)=O)C(=O)N[C@@H](Cc1ccccc1)C(=O)N[C@H](C(=O)N1CCC[C@H]1C(=O)N[C@H](C(=O)N[C@@H](CC(N)=O)C(=O)N[C@H](C(=O)NCC(=O)N[C@@H](CO)C(=O)N[C@@H](CCCCN)C(=O)N[C@@H](C)C(=O)N[C@@H](Cc1ccccc1)C(N)=O)C(C)C)[C@@H](C)O)C(C)C)C(C)C)C(C)C)[C@@H](C)O)C(C)C)[C@@H](C)O)[C@@H](C)O", "activity change, negative = inhibition": "inactive: -28.2%"}, {"smiles": "CC(C)C(=O)NNC(=O)C1CC1(c1ccccc1)c1ccccc1", "note": "(configuration not stated)", "Potency": "inconclusive: 0.141 µM [inhibitor, full curve, poor fit]"}, {"smiles": "COc1ccccc1OCC(=O)Nc1ncc(C)s1", "activity change, negative = inhibition": "inactive: -2.7%"}, {"smiles": "O=C(O)C1C2C=CC(C2)C1C(=O)Nc1ccc(Cl)c(Cl)c1", "note": "(configuration not stated)", "activity change, negative = inhibition": "inactive: -4.88%"}, {"smiles": "C[C@@H](C(=O)N1CCN(Cc2ccc3c(c2)OCO3)CC1)n1nnc2ccccc2c1=O", "Potency": "inconclusive: 39.8 µM [inhibitor, single point]"}, {"smiles": "O=C(O)c1cccc(-n2cccc2/C=C\\[N+](=O)[O-])c1", "Potency": "inconclusive: 39.8 µM [inhibitor, single point]"}, {"smiles": "CCC(C(=O)O)N1C(=O)/C(=C/C(C)=C/c2ccccc2)SC1=S", "note": "(configuration not stated)", "Potency": "inconclusive: 35.5 µM [inhibitor, single point]"}, {"smiles": "CCOC(=O)/C(Sc1nc(-c2ccccc2)cc(-c2ccccc2)c1C#N)=C(\\C)O", "Potency": "inconclusive: 2 µM [inhibitor, full curve, poor fit]"}, {"smiles": "Nc1nnnn1/N=C/c1ccc(F)cc1", "Potency": "inconclusive: 20 µM [inhibitor, partial curve, poor fit]"}, {"smiles": "CCN(CC(=O)Nc1c(F)cccc1F)C(=O)CCNC(=O)c1ccc([N+](=O)[O-])cc1", "Potency": "inconclusive: 8.91 µM [inhibitor, partial curve]"}, {"smiles": "COc1ccc(NC(=O)c2cnn(-c3ccc(C)c(C)c3)c2C2CCNCC2)cc1OC", "activity change, negative = inhibition": "inactive: -1.48%"}, {"smiles": "C[C@@H](CSc1ccccc1)CN1CC[C@H](C(C)(C)C)CCC1=O", "Potency": "inconclusive: 0.447 µM [inhibitor, full curve, poor fit]"}, {"smiles": "O=C(CNC(=S)N(CCCN1CCOCC1)Cc1cccs1)N1CCCCCC1", "activity change, negative = inhibition": "inactive: -2.48%"}, {"smiles": "CSc1nc(N)c(C#N)c(-c2ccc(Cl)cc2)c1C#N", "activity change, negative = inhibition": "inactive: -26.2%"}, {"smiles": "CCOC(=O)N1CCN(Cc2ccc(F)cc2F)CC1", "Potency": "inconclusive: 0.794 µM [inhibitor, single point]"}, {"smiles": "COc1ccc(Cl)cc1NC(=O)CC1S/C(=N/N=C2CCCCCC2)NC1=O", "note": "(configuration not stated)", "Potency": "inconclusive: 39.8 µM [inhibitor, single point]"}, {"smiles": "CC1(C)Cc2ccccc2-c2n[nH]c(=S)n21", "activity change, negative = inhibition": "inactive: -1.17%"}, {"smiles": "CCOC(=O)CCSc1nc(N2CCOCC2)c2c(c1C#N)CC(C)(C)OC2", "activity change, negative = inhibition": "inactive: -5.43%"}, {"smiles": "CCOC(=O)C1=C(Nc2ccc(C)cc2)CC(C)(O)C(C(=O)OCC)C1c1ccccc1", "note": "(configuration not stated)", "Potency": "inconclusive: 35.5 µM [inhibitor, single point]"}, {"smiles": "N#C/C(=C\\c1c[nH]c2ccccc12)C(=O)Nc1ncc(Cc2ccc(Cl)cc2Cl)s1", "Potency": "inconclusive: 12.6 µM [inhibitor, partial curve, poor fit]"}, {"smiles": "CC[C@@]1(O)C(=O)OCc2c1cc1n(c2=O)Cc2cc3c(CN(C)C)c(O)ccc3nc2-1", "Potency": "inconclusive: 28.2 µM [inhibitor, partial curve]"}, {"smiles": "O=C(Nc1cccc(Cl)c1)N1CC2CCCN2c2ccccc21", "note": "(configuration not stated)", "activity change, negative = inhibition": "inactive: 3.86%"}, {"smiles": "COc1ccc(-c2nc3n(n2)C(c2ccccc2OC)C(C(=O)Nc2cccnc2)=C(C)N3)cc1", "note": "(configuration not stated)", "activity change, negative = inhibition": "inactive: -11.5%"}, {"smiles": "CCOC(=O)N1CCc2c(sc(NCc3ccc(N(CC)CC)cc3)c2C(=O)Nc2cc(OC)ccc2OC)C1", "activity change, negative = inhibition": "inactive: -13.5%"}, {"smiles": "O=C(O)c1ccc(NC(=O)c2cccc(NC(=O)c3cccs3)c2)cc1", "Potency": "inconclusive: 2.82 µM [inhibitor, partial curve]"}, {"smiles": "CN1CCN(c2ccc(S(=O)(=O)N3CCOCC3)cc2)CC1", "Potency": "inconclusive: 2.24 µM [inhibitor, full curve, poor fit]"}, {"smiles": "O=C(COc1ccc(Cl)cc1Cl)Nc1ccc(C(=O)Nc2ccccc2C(=O)O)cc1", "Potency": "inconclusive: 31.6 µM [inhibitor, single point]"}, {"smiles": "COc1ccccc1CCn1cnc2c3cc(C)ccc3n(C)c2c1=O", "activity change, negative = inhibition": "inactive: 0.462%"}, {"smiles": "Oc1ccccc1N1CCN(CC(O)COC2CCCc3ccccc32)CC1", "note": "(configuration not stated)", "Potency": "inconclusive: 28.2 µM [inhibitor, partial curve]"}, {"smiles": "Oc1cc(O)cc(/C=C/c2ccc(O)c(O)c2)c1", "Potency": "inconclusive: 39.8 µM [inhibitor, single point] and inconclusive: 25.1 µM [inhibitor, partial curve]"}, {"smiles": "O=C(N/N=C/c1ccc(O)c(Br)c1)c1cc2c(ccc3ccccc32)o1", "activity change, negative = inhibition": "inactive: -3.39%"}, {"smiles": "CCOC(=O)c1cnc2cc(C)nn2c1-c1ccccc1", "Potency": "active: 39.8 µM"}, {"smiles": "O=C(CC(Nc1ccccc1Cl)C(=O)OCC(=O)c1cccs1)c1ccccc1", "note": "(configuration not stated)", "Potency": "inconclusive: 0.631 µM [inhibitor, partial curve, poor fit]"}, {"smiles": "CC1CCN(CCCCOc2ccccc2Br)CC1", "activity change, negative = inhibition": "inactive: -6.57%"}, {"smiles": "COc1ccc(N2CCN(C(=O)CNC(=O)c3ccc4ccccc4c3)CC2)cc1", "activity change, negative = inhibition": "inactive: 2.73%"}, {"smiles": "COC(=O)c1c(C#N)c(N)nc2c1CCCC2", "Potency": "inconclusive: 39.8 µM [inhibitor, single point]"}, {"smiles": "O=C(O)CSc1cc(C(=O)c2cc(F)ccc2O)cn2c(=O)c3c(-c4ccccc4)csc3nc12", "Potency": "inconclusive: 31.6 µM [inhibitor, single point]"}, {"smiles": "CCCSC1=N/C(=C\\c2ccc([N+](=O)[O-])o2)C(=O)S1", "Potency": "inconclusive: 22.4 µM [inhibitor, single point]"}, {"smiles": "CC(C)Oc1cccc(NC(=O)c2cnccc2C(F)(F)F)c1", "Potency": "inconclusive: 7.94 µM [inhibitor, full curve]"}, {"smiles": "CC(C)NC(=O)N1CC[C@@]2(CCCN(C(=O)c3cc(C(F)(F)F)cc(C(F)(F)F)c3)C2)C1", "activity change, negative = inhibition": "inactive: 1.03%"}]}]}
